The results in this text go back to patent US20170189504A1, “NOVEL PEPTIDES AND COMBINATION OF PEPTIDES FOR USE IN IMMUNOTHERAPY AGAINST VARIOUS CANCERS” (immatics biotechnologies GmbH, priority 2015, published 2017).

The subject of series [1] is HLA-A*02. As to the kind of experiment: Identification and relative LC-MS quantitation of HLA-A*02-presented tumor-associated peptides on tissue samples (presentation profiles, Tables 13A, 13B, 15, FIG. 1). Particulars: for Presentation score AML: acute myeloid leukemia (N = 18) vs panel of normal tissues (N = 262); for Presentation score NHL: non-Hodgkin lymphoma (N = 18) vs panel of normal tissues (N = 262); for Peptide Presentation on cancer entities: HLA-A*02-binding tumor-associated peptides. Also noted: species or system human; key to Presentation score NHL / Presentation score CLL / Presentation score BRCA / Presentation score AML / Presentation score GB / Presentation score NSCLC / Presentation score GBC_CCC / Presentation score UEC / Presentation score MEL / Presentation score OSCAR / Presentation score GC / Presentation score UBC / Presentation score OC / Presentation score RCC / Presentation score CRC / Presentation score PCA / Presentation score HCC / Presentation score PC / Presentation score SCLC: specifically presented on tumors (++++); very highly over-presented on tumors compared to a panel of normal tissues (+++); highly over-presented on tumors compared to a panel of normal tissues (++); over-presented on tumors compared to a panel of normal tissues (+).

Series [2] relates to source genes (mRNA). As to the kind of experiment: Gene and exon expression of source genes, TCGA tumor samples compared with normal tissue samples (Lonsdale, 2013) (Table 17). More on the design: species or system human. As to conditions: for Target coverage: over-expression category of source gene, GBM: Glioblastoma multiforme (N = 169); for Target coverage: over-expression category of source gene, LAML: Acute Myeloid Leukemia (N = 173); for Target coverage: over-expression category of source gene, ESCA: Esophageal cancer (N = 185).

Series [3] concerns source genes (mRNA). As to the kind of experiment: Expression profiling of source genes by in-house RNASeq of tumor and normal tissues (Table 18, FIG. 2). More on the design: species or system human; key: very highly over-expressed in tumors compared to a panel of normal tissues (+++); highly over-expressed in tumors compared to a panel of normal tissues (++); over-expressed in tumors compared to a panel of normal tissues (+). Particulars: source gene of peptide; for Expression score GB: glioblastoma (N = 24) vs panel of normal tissues; for Expression score BRCA: BRCA tumors vs panel of normal tissues; for Expression score NHL: non-Hodgkin lymphoma (N = 10) vs panel of normal tissues; for Expression score NSCLC: non-small cell lung cancer (N = 11) vs panel of normal tissues; for Expression score OC: ovarian cancer (N = 12) vs panel of normal tissues; for Expression score SCLC: small cell lung cancer (N = 10) vs panel of normal tissues; for Expression score UEC: uterine cancer (N = 10) vs panel of normal tissues.

[4] abbreviates: cutoff more than 2-fold above highest 75% percentile of normal tissue samples.
Where [5] appears, read: Table 13A, cancer entities on which the peptide was found presented.
Where [6] appears, read: Table 13B, presentation on additional cancer entities.

For some assays here: For expression read-outs the peptide stands for its source gene, whose mRNA was measured; the gene is not named for every peptide.

“41: peptide found in PHKG1 (gene looked up) (ALFENTPKA; listed as Homo sapiens) [compound 41]”: the “Presentation score GB” value in series [1] (HLA-A*02 peptides, glioblastoma (N = 41) vs panel of normal tissues (N = 262)) is recorded as “++++”. Also, in series [2] (setting [4]), the “Target coverage: over-expression category of source gene, GBM” value is reported as “C (>=5% of tumors above the cutoff, but <20%)”. Moreover, the “Expression score GB” value in series [3] is reported as “+”.
As for “44: peptide found in KNTC1 (gene looked up) (SLFETAWEA; listed as Homo sapiens) [compound 44]”, in series [1] (HLA-A*02 peptides), the “Presentation score AML” value is listed as “++++” and the “Presentation score NHL” value is “++++”. Also, the “Presentation score MEL” value in series [1] (HLA-A*02 peptides, melanoma (N = 7) vs panel of normal tissues (N = 262)) is given as “++++”. In addition, the “Presentation score NSCLC” value in series [1] (HLA-A*02 peptides, non-small cell lung cancer (N = 90) vs panel of normal tissues (N = 262)) was “++++”. Besides, the “Peptide Presentation on cancer entities” value in series [1] (setting [5]) is listed as “NSCLC, MEL, AML, NHL”. Further, in series [1] (setting [6]), the “Peptide Presentation on cancer entities” value is on record as “UEC, CRC, HNSCC”. In series [2] (setting [4]), the “Target coverage: over-expression category of source gene, LAML” value is “A (>=50% of tumors above the cutoff)”; the “Target coverage: over-expression category of source gene, ESCA” value is “A (>=50% of tumors above the cutoff)”; the “Target coverage: over-expression category of source gene, GBM” value is “C (>=5% of tumors above the cutoff, but <20%)”. In series [2] (Bladder urothelial carcinoma (N = 408), cutoff more than 2-fold above highest 75% percentile of normal tissue samples), the “Target coverage: over-expression category of source gene, BLCA” value is given as “C (>=5% of tumors above the cutoff, but <20%)”. Moreover, the “Target coverage: over-expression category of source gene, BRCA” value in series [2] (Breast cancer (N = 1104), cutoff more than 2-fold above highest 75% percentile of high and medium risk normal tissue samples) is “B (>= 20% of tumors above the cutoff, but <50%)”. Moreover, the “Target coverage: over-expression category of source gene, READ” value in series [2] (Colon and rectal adenocarcinoma (N = 167), cutoff more than 2-fold above highest 75% percentile of normal tissue samples) is given as “B (>= 20% of tumors above the cutoff, but <50%)”. Moreover, the “Target coverage: over-expression category of source gene, COAD” value in series [2] (Colon and rectal adenocarcinoma (N = 462), cutoff more than 2-fold above highest 75% percentile of normal tissue samples) was “B (>= 20% of tumors above the cutoff, but <50%)”. In series [2] (Lung adenocarcinoma (N = 517), cutoff more than 2-fold above highest 75% percentile of normal tissue samples), the “Target coverage: over-expression category of source gene, LUAD” value was “C (>=5% of tumors above the cutoff, but <20%)”. Moreover, in series [2] (Lung squamous cell carcinoma (N = 503), cutoff more than 2-fold above highest 75% percentile of normal tissue samples), the “Target coverage: over-expression category of source gene, LUSC” value is listed as “B (>= 20% of tumors above the cutoff, but <50%)”. For the same substance, the “Target coverage: over-expression category of source gene, DLBC” value in series [2] (Lymphoid neoplasm diffuse large B-cell lymphoma (N = 48), cutoff more than 2-fold above highest 75% percentile of normal tissue samples) is “B (>= 20% of tumors above the cutoff, but <50%)”. In series [2] (Ovarian serous cystadenocarcinoma (N = 309), cutoff more than 2-fold above highest 75% percentile of normal tissue samples), the “Target coverage: over-expression category of source gene, OV” value is listed as “C (>=5% of tumors above the cutoff, but <20%)”. Besides, the “Target coverage: over-expression category of source gene, SKCM” value in series [2] (Skin cutaneous melanoma (N = 473), cutoff more than 2-fold above highest 75% percentile of normal tissue samples) is “B (>= 20% of tumors above the cutoff, but <50%)”. Also, the “Target coverage: over-expression category of source gene, STAD” value in series [2] (Stomach adenocarcinoma (N = 415), cutoff more than 2-fold above highest 75% percentile of normal tissue samples) is on record as “B (>= 20% of tumors above the cutoff, but <50%)”. Moreover, in series [3], the “Expression score BRCA” value was “+”, the “Expression score GB” value is reported as “+”, the “Expression score NHL” value is listed as “+++” and the “Expression score NSCLC” value is listed as “++”. For the same substance, in series [3], the “Expression score OC” value is “+”, the “Expression score SCLC” value is “+++” and the “Expression score UEC” value was “+”. Further, in series [3] (acute myeloid leukemia (N = 11) vs panel of normal tissues), the “Expression score AML” value is reported as “+”. The “Expression score CLL” value in series [3] (chronic lymphocytic leukemia (N = 10) vs panel of normal tissues) is “++”. Moreover, the “Expression score CRC” value in series [3] (colorectal cancer (N = 20) vs panel of normal tissues) is listed as “+”. In addition, the “Expression score OSCAR” value in series [3] (esophageal cancer incl. gastric-esophageal junction (N = 11) vs panel of normal tissues) is reported as “+”. Also, the “Expression score UBC” value in series [3] (urinary bladder cancer (N = 10) vs panel of normal tissues) was “+”.
As for “45: peptide found in BARD1 (gene looked up) (SLTEVSLPL; listed as Homo sapiens) [compound 45]”, in series [1] (HLA-A*02 peptides), the “Presentation score AML” value is listed as “++++” and the “Presentation score NHL” value is given as “++++”. For the same substance, in series [1] (HLA-A*02 peptides, gallbladder adenocarcinoma and cholangiocarcinoma (N = 6) vs panel of normal tissues (N = 262)), the “Presentation score GBC_CCC” value is reported as “++++”. Further, the “Presentation score OC” value in series [1] (HLA-A*02 peptides, ovarian cancer (N = 20) vs panel of normal tissues (N = 262)) was “++++”. Moreover, in series [1] (setting [5]), the “Peptide Presentation on cancer entities” value is “OC, GBC_CCC, AML, NHL”. For the same substance, the “Peptide Presentation on cancer entities” value in series [1] (setting [6]) is “NSCLC, CRC, HNSCC”. In series [2] (setting [4]), the “Target coverage: over-expression category of source gene, LAML” value is “C (>=5% of tumors above the cutoff, but <20%)” and the “Target coverage: over-expression category of source gene, ESCA” value is on record as “C (>=5% of tumors above the cutoff, but <20%)”. In series [3], the “Expression score BRCA” value was “+”, the “Expression score GB” value is recorded as “+”, the “Expression score NHL” value is recorded as “++” and the “Expression score NSCLC” value is listed as “+”. For the same substance, in series [3], the “Expression score OC” value was “+”, the “Expression score SCLC” value was “++” and the “Expression score UEC” value is “+”. In series [3] (gallbladder adenocarcinoma and cholangiocarcinoma (N = 3) vs panel of normal tissues), the “Expression score GBC_CCC” value is given as “+”.
